# In patent publication US20260209368A1 (PROMETHEUS BIOSCIENCES, published 2026):
# These are yes or no findings as the source states them, for the method shown. Some results given as binding are weak or reduced against the parent protein; the word gives no strength.
# T1: DR3 receptor on human TF-1 cells (human) (UniProt Q93038)
# T1 sequence (looked up): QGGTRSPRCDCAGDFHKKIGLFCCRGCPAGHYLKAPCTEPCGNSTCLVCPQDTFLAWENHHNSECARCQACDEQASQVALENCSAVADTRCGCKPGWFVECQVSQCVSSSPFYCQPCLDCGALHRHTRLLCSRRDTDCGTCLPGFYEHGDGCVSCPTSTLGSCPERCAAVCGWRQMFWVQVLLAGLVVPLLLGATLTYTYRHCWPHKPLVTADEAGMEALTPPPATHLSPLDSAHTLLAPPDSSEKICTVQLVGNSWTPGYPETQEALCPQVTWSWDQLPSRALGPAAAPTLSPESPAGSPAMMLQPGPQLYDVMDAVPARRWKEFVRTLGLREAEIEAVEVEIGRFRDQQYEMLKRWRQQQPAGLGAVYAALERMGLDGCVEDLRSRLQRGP
# Biological target: T1, DR3 receptor on human TF-1 cells (human)
# Experiment: TF-1 cell caspase activation assay
binder,measurement,value
recombinant cynomolgus monkey TL1A protein (ligand) LKGQEFAPSHQQVYAPLRADGDKPRAHLTVVRQTPTQHLKNQFPALHWEHELGLAFTKNRMNYTNKFLLIPESGDYFVYSQVTFRGMTSECSEIRQAGRPNKPDSITVVITKVTDSYPEPTQLLMGTKSVCEVGSNWFQPIYLGAMFSLQEGDKLMVNVSDISLVDYTKEDKTFFGAFLL,binding,binds
